PubChem BioAssay AID1508588, Peter MacCallum Cancer Centre | 2020

Purpose: 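Genome-wide search for knock-downs that heighten vemurafenib action in melanoma cells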 (primary screen)
Cells: human WM266.4 melanoma cells (BRAF V600 mutant)
Knock-down reagent: siRNA pool against human genes, 40 nM
Time to read-out: 96 h from transfection to read-out
Conditions: vemurafenib 300 nM (about IC25), added 48 h after transfection, for 48 h; comparison arm got DMSO vehicle only
Read-out: 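Ratios to non-targeting siRNA for cell gain, counted as DAPI nuclei after minus before drug and averaged over two replicates, and for absorbance-read medium lactate per cell; both binned into fold-change classes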
Scale: cell gain with vemurafenib: higher = more cell gain than with non-targeting siRNA; lactate per cell with vemurafenib: higher = more lactate made per cell
Active means: 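Enhancement is called by pairing each knock-down's vehicle-arm and drug-arm fold-change classes for viability or glycolysis; which class combinations qualify is not given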
Calls: active = enhances vemurafenib effect; inactive = no enhancement seen
Shown is one part, drawn at random, of about 18,000 reagents. 790 of them (4.4%) were called active. 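Calls rest on a combination of fold-change classes in drug and vehicle arms, not all shown here.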 Entries without a mark were called inactive.

gene | cell gain with vemurafenib | lactate per cell with vemurafenib
FRMD8 (GeneID 83786) | 0.33 | 2.2
NUDT4 (GeneID 11163) | 0.81 | 0.29
SERPINA13P (GeneID 388007) | 0.68 | 0.68
EMC8 (GeneID 10328) | 0.5 | 1.27
HK1 (GeneID 3098) | 0.89 | 0.24
ATP5F1C (GeneID 509) | 0.93 | 1.24
IVD (GeneID 3712) | 0.14 | 2.8
IL34 (GeneID 146433) | 0.93 | 0.62
NANOS2 (GeneID 339345) | 0.8 | 1.02
BAZ1A (GeneID 11177) | 0.36 | 2.03
PLPP2 (GeneID 8612) | 0.15 | 1.68
AMHR2 (GeneID 269) | 0.47 | 1.14
CNTLN (GeneID 54875) | 0.33 (active) | 0.7
SLC9B2 (GeneID 133308) | 0.45 | 1.98
ERAS (GeneID 3266) | 1.28 | 0.86
TAC3 (GeneID 6866) | 0.77 | 0.81
PRKAG3 (GeneID 53632) | -0.04 | 3.62
MON1B (GeneID 22879) | 0.52 | 1
CETP (GeneID 1071) | 0.87 | 0.84
IGF2BP2-AS1 (GeneID 646600) | 0.65 | 1.46
NR4A3 (GeneID 8013) | 0.3 | 0.65
MRPL35 (GeneID 51318) | 0.38 | 1.31
SFI1 (GeneID 9814) | -0.02 | 1.5
KMT2D (GeneID 8085) | 1.14 | 0.77
DAPK2 (GeneID 23604) | 0.48 | 1.17
ADRA1A (GeneID 148) | 0.97 | 1.02
KRT76 (GeneID 51350) | 0.71 | 0.86
POLI (GeneID 11201) | 1.13 | 0.65
ABHD12 (GeneID 26090) | 0.61 | 0.7
USP9Y (GeneID 8287) | 1.13 | 0.54
DDX18 (GeneID 8886) | 0.4 | 1.24
EIF4EBP1 (GeneID 1978) | 0.43 | 0.59
PEX13 (GeneID 5194) | 0.57 | 0.58
YIF1B (GeneID 90522) | 0.12 | 1.69
SP1 (GeneID 6667) | 0.1 | 1.95
NOX1 (GeneID 27035) | 0.53 | 1.4
CNGA1 (GeneID 1259) | 0.44 | 0.4
CD160 (GeneID 11126) | 0.1 | 1.63
MOV10L1 (GeneID 54456) | 0.2 | 1.77
GABARAP (GeneID 11337) | 0.75 | 0.64
C19orf12 (GeneID 83636) | 0.38 | 1.25
PHOX2A (GeneID 401) | 0.92 | 0.66
MDGA1 (GeneID 266727) | 0.8 | 0.8
CDHR1 (GeneID 92211) | 0.53 | 0.92
HTT (GeneID 3064) | 0.49 | 1.73
FSHB (GeneID 2488) | 1.04 | 0.64
CFTR (GeneID 1080) | 1.07 | 0.7
C1QB (GeneID 713) | 0.45 | 1.4
NR2C2 (GeneID 7182) | 0.26 | 0.52
SEC61G (GeneID 23480) | 0.73 | 0.81
BMP2 (GeneID 650) | 0.78 | 0.42
LRP2BP (GeneID 55805) | 0.29 | 1.38
TIPARP (GeneID 25976) | 0.39 | 1.34
GJD2 (GeneID 57369) | 0.99 | 0.66
IL17B (GeneID 27190) | 0.44 | 2.64
DHX8 (GeneID 1659) | 0.43 | 0.82
C14orf180 (GeneID 400258) | 0.22 | 1.96
OAS3 (GeneID 4940) | 0.22 | 0.96
AVPR1B (GeneID 553) | 0.45 | 1.12
PSMA5 (GeneID 5686) | 0.08 | 2.23
SNAPIN (GeneID 23557) | 0.42 (active) | 0.28
PDZRN3 (GeneID 23024) | 1.14 | 0.7
ERCC5 (GeneID 2073) | 0.13 | 1
ATXN3 (GeneID 4287) | 0.82 | 0.6
DACH1 (GeneID 1602) | 0.45 | 1.46
DNMT1 (GeneID 1786) | 0.56 | 1.66
YME1L1 (GeneID 10730) | 0.66 | 0.79
ADAMTS9 (GeneID 56999) | 0.67 | 0.57
OCM2 (GeneID 4951) | 0.36 | 2.03
SLC26A6 (GeneID 65010) | 0.35 | 1.62
SYDE1 (GeneID 85360) | 0.76 | 1.26
GALNT6 (GeneID 11226) | 0.69 | 0.82
DCHS1 (GeneID 8642) | 0.11 | 2.33
SIGLEC8 (GeneID 27181) | 0.3 | 1.11
MLH1 (GeneID 4292) | 0.43 | 1.12
THBS4 (GeneID 7060) | 0.58 | 1.62
DNM3 (GeneID 26052) | 0.69 | 0.82
PTTG1 (GeneID 9232) | 0.51 | 0.88
GNG4 (GeneID 2786) | 0.74 | 0.68
ELOF1 (GeneID 84337) | 0.38 | 0.94
TMEM168 (GeneID 64418) | 0.77 | 0.77
ZNF592 (GeneID 9640) | 1.07 | 0.84
ZNF175 (GeneID 7728) | 1.07 | 0.52
POLN (GeneID 353497) | 0.31 | 0.22
BOC (GeneID 91653) | 0.65 | 0.93
TOMM40 (GeneID 10452) | 0.77 | 0.96
ALDH7A1 (GeneID 501) | 0.42 | 1.25
PRELID1 (GeneID 27166) | 0.92 | 0.74
RHOJ (GeneID 57381) | 0.51 | 1.49
CAMK2N1 (GeneID 55450) | 0.72 | 0.92
AP2B1 (GeneID 163) | 0.32 | 0.94
PTPN21 (GeneID 11099) | 0.66 | 0.33
TMEM131L (GeneID 23240) | 1 | 0.66
ITGB1BP1 (GeneID 9270) | 0.2 | 1.03
ZNF414 (GeneID 84330) | 0.62 | 0.86
HAUS2 (GeneID 55142) | 0.04 (active) | 0.56
SPICE1 (GeneID 152185) | 0.54 | 0.41
KCNN1 (GeneID 3780) | 0.69 | 0.78
RANBP1 (GeneID 5902) | 0.74 | 0.8
MPL (GeneID 4352) | 0.58 | 0.66
ANO7 (GeneID 50636) | 0.72 | 0.53
CDK14 (GeneID 5218) | 0.37 (active) | 0.34
SRPK3 (GeneID 26576) | 1.23 | 0.44
SLAIN1 (GeneID 122060) | 0.78 | 1.21
OPTC (GeneID 26254) | 0.3 | 1.36
CLEC7A (GeneID 64581) | 0.6 (active) | 0.44
PRAM1 (GeneID 84106) | 0.44 | 1.86
